Reference: the supplement of paper PMC8728848
This is one part of the list.

Experiments:
Assay in all cases: glycan array binding signal (z-score within array); higher = stronger binding
Conditions in all cases: glycan notation: IUPAC condensed, linker removed
[1] = molecular target: Fuc(a1-2)[GalNAc(a1-3)]Gal(b1-4)Glc
Outline: (§1)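 Glycan array binding is given as a within-array Z-score, which can be read as non-binding when negative. The arrays, 3228 of them, came from the Consortium for Functional Glycomics database and were retained only where the protein sequence was available. Z-scores were averaged across arrays of the same protein sequence at different concentrations or buffers and across linkers.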

[2] = molecular target: Fuc(a1-2)[GalNAc(a1-3)]Gal(b1-4)GlcNAc
Outline: as §1

[3] = molecular target: Fuc(a1-2)[GalNAc(a1-3)]Gal(b1-4)GlcNAc(b1-2)Man(a1-3)[Fuc(a1-2)[GalNAc(a1-3)]Gal(b1-4)GlcNAc(b1-2)Man(a1-6)]Man(b1-4)GlcNAc(b1-4)GlcNAc
Outline: as §1

[4] = molecular target: Fuc(a1-2)[GalNAc(a1-3)]Gal(b1-4)GlcNAc(b1-2)Man(a1-3)[Fuc(a1-2)[GalNAc(a1-3)]Gal(b1-4)GlcNAc(b1-2)Man(a1-6)]Man(b1-4)GlcNAc(b1-4)[Fuc(a1-6)]GlcNAc
Outline: as §1

[5] = molecular target: Fuc(a1-2)[GalNAc(a1-3)]Gal(b1-4)GlcNAc(b1-3)Gal(b1-4)GlcNAc
Outline: as §1

[6] = molecular target: Fuc(a1-2)[GalNAc(a1-3)]Gal(b1-4)GlcNAc(b1-3)Gal(b1-4)GlcNAc(b1-3)Gal(b1-4)GlcNAc
Outline: as §1

[7] = molecular target: Fuc(a1-2)[GalNAc(a1-3)]Gal(b1-4)GlcNAc(b1-3)GalNAc
Outline: as §1

[8] = molecular target: Fuc(a1-2)[GalNAc(a1-3)]Gal(b1-4)[Fuc(a1-3)]GlcNAc
Outline: as §1

[9] = molecular target: Fuc(a1-2)[GalNAc(a1-3)]Gal(b1-4)[Fuc(a1-3)]GlcNAc(b1-3)GalNAc
Outline: as §1

[10] = molecular target: Fuc(a1-2)[GalNAc(a1-4)]Gal(b1-4)GlcNAc
Outline: as §1

[11] = molecular target: Fuc(a1-2)[GalNAc(b1-3)]Gal
Outline: as §1

Fuc(a1-3)GlcNAc = molecular target: Fuc(a1-3)GlcNAc
Outline: as §1

[12] = molecular target: Fuc(a1-3)[Gal(b1-4)]Glc6S
Outline: as §1

[13] = molecular target: Fuc(a1-3)[Gal(b1-4)]GlcNAc
Outline: as §1

[14] = molecular target: Fuc(a1-3)[Gal(b1-4)]GlcNAc(b1-2)Man(a1-3)[Fuc(a1-3)[Gal(b1-4)]GlcNAc(b1-2)Man(a1-6)]Man(b1-4)GlcNAc(b1-4)GlcNAc
Outline: as §1

[15] = molecular target: Fuc(a1-3)[Gal(b1-4)]GlcNAc(b1-2)Man(a1-3)[Fuc(a1-3)[Gal(b1-4)]GlcNAc(b1-2)Man(a1-6)]Man(b1-4)GlcNAc(b1-4)[Fuc(a1-6)]GlcNAc
Outline: as §1

[16] = molecular target: Fuc(a1-3)[Gal(b1-4)]GlcNAc(b1-3)Gal(b1-3)[Fuc(a1-4)]GlcNAc
Outline: as §1

[17] = molecular target: Fuc(a1-3)[Gal(b1-4)]GlcNAc(b1-3)GalNAc
Outline: as §1

[18] = molecular target: Fuc(a1-3)[Gal(b1-4)]GlcNAc(b1-4)Gal(b1-4)[Fuc(a1-3)]GlcNAc
Outline: as §1

[19] = molecular target: Fuc(a1-3)[Gal(b1-4)]GlcNAc(b1-4)Gal(b1-4)[Fuc(a1-3)]GlcNAc(b1-4)Gal(b1-4)[Fuc(a1-3)]GlcNAc
Outline: as §1

[20] = molecular target: Fuc(a1-3)[Gal(b1-4)]GlcNAc(b1-6)GalNAc
Outline: as §1

[21] = molecular target: Fuc(a1-3)[Gal(b1-4)]GlcNAc(b1-6)[Gal(b1-3)GlcNAc(b1-3)]Gal(b1-4)Glc
Outline: as §1

[22] = molecular target: Fuc(a1-3)[Gal(b1-4)]GlcNAc(b1-6)[Neu5Ac(a2-3)Gal(b1-3)]GalNAc
Outline: as §1

[23] = molecular target: Fuc(a1-3)[Gal(b1-4)]GlcNAc6S
Outline: as §1

[24] = molecular target: Fuc(a1-3)[Gal3S(b1-4)]GlcNAc
Outline: as §1

[25] = molecular target: Fuc(a1-3)[Gal3S(b1-4)]GlcNAc6S
Outline: as §1

[26] = molecular target: Fuc(a1-3)[GalNAc(b1-4)]GlcNAc
Outline: as §1

Fuc(a1-4)GlcNAc = molecular target: Fuc(a1-4)GlcNAc
Outline: as §1

Fuc(b1-3)GlcNAc = molecular target: Fuc(b1-3)GlcNAc
Outline: as §1

Gal(a1-2)Gal = molecular target: Gal(a1-2)Gal
Outline: as §1

Gal(a1-3)Gal = molecular target: Gal(a1-3)Gal
Outline: as §1

Gal(a1-3)Gal(b1-3)GlcNAc = molecular target: Gal(a1-3)Gal(b1-3)GlcNAc
Outline: as §1

[27] = molecular target: Gal(a1-3)Gal(b1-3)GlcNAc(b1-2)Man(a1-3)[Gal(a1-3)Gal(b1-3)GlcNAc(b1-2)Man(a1-6)]Man(b1-4)GlcNAc(b1-4)GlcNAc
Outline: as §1

[28] = molecular target: Gal(a1-3)Gal(b1-3)GlcNAc(b1-3)GalNAc
Outline: as §1

[29] = molecular target: Gal(a1-3)Gal(b1-3)[Fuc(a1-4)]GlcNAc(b1-2)Man(a1-3)[Gal(a1-3)Gal(b1-3)[Fuc(a1-4)]GlcNAc(b1-2)Man(a1-6)]Man(b1-4)GlcNAc(b1-4)GlcNAc
Outline: as §1

Gal(a1-3)Gal(b1-4)Glc = molecular target: Gal(a1-3)Gal(b1-4)Glc
Outline: as §1

Gal(a1-3)Gal(b1-4)GlcNAc = molecular target: Gal(a1-3)Gal(b1-4)GlcNAc
Outline: as §1

B1: PGP3 (Chlamydia trachomatis), P0CE18 (protein)
chain: MGNSGFYLYNTQNCVFADNIKVGQMTEPLKDQQIILGTTSTPVAAKMTASDGISLTVSNNPSTNASITIGLDAEKAYQLILEKLGDQILGGIADTIVDSTVQDILDKITTDPSLGLLKAFNNFPITNKIQCNGLFTPRNIETLLGGTEIGKFTVTPKSSGSMFLVSADIIASRMEGGVVLALVREGDSKPYAISYGYSSGVPNLCSLRTRIINTGLTPTTYSLRVGGLESGVVWVNALSNGNDILGITNTSNVSFLEVIPQTNA
- glycan array binding signal (z-score) [1]: 1.44
- glycan array binding signal (z-score) [2]: -0.962
- glycan array binding signal (z-score) [3]: 1.11
- glycan array binding signal (z-score) [4]: 1.55
- glycan array binding signal (z-score) [5]: 0.028
- glycan array binding signal (z-score) [6]: -0.302
- glycan array binding signal (z-score) [7]: 0.429
- glycan array binding signal (z-score) [8]: 0.36
- glycan array binding signal (z-score) [9]: -0.028
- glycan array binding signal (z-score) [10]: -1.54
- glycan array binding signal (z-score) [11]: -0.986
- glycan array binding signal (z-score) (Fuc(a1-3)GlcNAc): 1.41
- glycan array binding signal (z-score) [12]: -0.759
- glycan array binding signal (z-score) [13]: 1.09
- glycan array binding signal (z-score) [14]: 2.78
- glycan array binding signal (z-score) [15]: -0.169
- glycan array binding signal (z-score) [16]: -0.101
- glycan array binding signal (z-score) [17]: -1.38
- glycan array binding signal (z-score) [18]: 0.789
- glycan array binding signal (z-score) [19]: 1.29
- glycan array binding signal (z-score) [20]: 0.264
- glycan array binding signal (z-score) [21]: 0.419
- glycan array binding signal (z-score) [22]: 0.65
- glycan array binding signal (z-score) [23]: 1.22
- glycan array binding signal (z-score) [24]: 0.127
- glycan array binding signal (z-score) [25]: -1.42
- glycan array binding signal (z-score) [26]: 0.584
- glycan array binding signal (z-score) (Fuc(a1-4)GlcNAc): -0.063
- glycan array binding signal (z-score) (Fuc(b1-3)GlcNAc): 0.047
- glycan array binding signal (z-score) (Gal(a1-2)Gal): -0.594
- glycan array binding signal (z-score) (Gal(a1-3)Gal): 0.842
- glycan array binding signal (z-score) (Gal(a1-3)Gal(b1-3)GlcNAc): -0.446
- glycan array binding signal (z-score) [27]: -1.59
- glycan array binding signal (z-score) [28]: 0.477
- glycan array binding signal (z-score) [29]: -1.01
- glycan array binding signal (z-score) (Gal(a1-3)Gal(b1-4)Glc): -0.22
- glycan array binding signal (z-score) (Gal(a1-3)Gal(b1-4)GlcNAc): -0.531
